This is an account of results in the supplement of paper PMC10849652.

By UniProt entry, the sequences of proteins in these tests, tags left out. Where a name states a change or a piece, a line headed by the entry shows the natural chain unless it says otherwise.
UniProt O14810: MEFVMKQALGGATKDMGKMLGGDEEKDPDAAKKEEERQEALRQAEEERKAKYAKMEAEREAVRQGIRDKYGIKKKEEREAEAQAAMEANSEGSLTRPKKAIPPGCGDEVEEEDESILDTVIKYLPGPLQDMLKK
UniProt Q96FN4: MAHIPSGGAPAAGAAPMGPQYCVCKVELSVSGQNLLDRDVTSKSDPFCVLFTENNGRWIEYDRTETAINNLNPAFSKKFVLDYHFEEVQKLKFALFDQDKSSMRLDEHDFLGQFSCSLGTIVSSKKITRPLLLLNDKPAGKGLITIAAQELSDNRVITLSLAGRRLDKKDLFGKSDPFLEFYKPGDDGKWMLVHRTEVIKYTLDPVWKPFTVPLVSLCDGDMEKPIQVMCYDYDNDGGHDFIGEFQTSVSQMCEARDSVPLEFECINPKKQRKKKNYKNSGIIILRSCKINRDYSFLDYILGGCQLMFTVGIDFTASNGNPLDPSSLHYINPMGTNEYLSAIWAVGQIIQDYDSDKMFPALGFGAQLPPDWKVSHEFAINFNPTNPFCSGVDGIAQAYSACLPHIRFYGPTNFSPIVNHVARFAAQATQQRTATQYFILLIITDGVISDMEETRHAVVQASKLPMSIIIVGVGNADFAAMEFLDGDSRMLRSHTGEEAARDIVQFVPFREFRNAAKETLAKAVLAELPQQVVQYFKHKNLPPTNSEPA
UniProt O43405: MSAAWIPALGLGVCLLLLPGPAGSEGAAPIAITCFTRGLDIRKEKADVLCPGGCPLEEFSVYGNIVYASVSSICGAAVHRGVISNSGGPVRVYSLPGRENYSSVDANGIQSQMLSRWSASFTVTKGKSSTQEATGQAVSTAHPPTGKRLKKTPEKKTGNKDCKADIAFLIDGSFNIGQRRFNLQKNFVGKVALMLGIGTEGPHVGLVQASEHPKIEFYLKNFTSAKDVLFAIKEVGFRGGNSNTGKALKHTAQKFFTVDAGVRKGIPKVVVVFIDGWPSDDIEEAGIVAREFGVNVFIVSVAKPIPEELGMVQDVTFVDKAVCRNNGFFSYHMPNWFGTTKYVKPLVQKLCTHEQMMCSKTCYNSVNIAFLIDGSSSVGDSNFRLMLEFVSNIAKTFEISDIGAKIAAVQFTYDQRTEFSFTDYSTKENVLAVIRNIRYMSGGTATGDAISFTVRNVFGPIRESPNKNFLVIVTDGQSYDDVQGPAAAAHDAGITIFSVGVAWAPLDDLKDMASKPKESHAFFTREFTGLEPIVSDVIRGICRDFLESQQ
UniProt Q8N129: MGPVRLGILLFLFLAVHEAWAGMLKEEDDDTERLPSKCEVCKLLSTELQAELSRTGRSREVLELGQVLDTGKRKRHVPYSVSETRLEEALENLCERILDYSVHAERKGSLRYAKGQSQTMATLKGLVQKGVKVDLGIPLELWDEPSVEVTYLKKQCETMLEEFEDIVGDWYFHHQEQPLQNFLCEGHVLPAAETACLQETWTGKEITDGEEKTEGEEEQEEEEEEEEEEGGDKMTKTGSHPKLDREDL
UniProt Q9H0A8, whole entry, looked up: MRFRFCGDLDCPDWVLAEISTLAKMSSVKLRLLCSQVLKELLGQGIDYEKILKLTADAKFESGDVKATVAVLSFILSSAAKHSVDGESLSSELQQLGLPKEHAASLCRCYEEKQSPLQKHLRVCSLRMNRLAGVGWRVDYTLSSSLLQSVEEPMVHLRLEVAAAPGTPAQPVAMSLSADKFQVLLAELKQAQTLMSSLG
UniProt P09669, whole entry, looked up: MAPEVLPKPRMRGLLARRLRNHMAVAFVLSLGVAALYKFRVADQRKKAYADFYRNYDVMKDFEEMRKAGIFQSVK
UniProt Q17RY0: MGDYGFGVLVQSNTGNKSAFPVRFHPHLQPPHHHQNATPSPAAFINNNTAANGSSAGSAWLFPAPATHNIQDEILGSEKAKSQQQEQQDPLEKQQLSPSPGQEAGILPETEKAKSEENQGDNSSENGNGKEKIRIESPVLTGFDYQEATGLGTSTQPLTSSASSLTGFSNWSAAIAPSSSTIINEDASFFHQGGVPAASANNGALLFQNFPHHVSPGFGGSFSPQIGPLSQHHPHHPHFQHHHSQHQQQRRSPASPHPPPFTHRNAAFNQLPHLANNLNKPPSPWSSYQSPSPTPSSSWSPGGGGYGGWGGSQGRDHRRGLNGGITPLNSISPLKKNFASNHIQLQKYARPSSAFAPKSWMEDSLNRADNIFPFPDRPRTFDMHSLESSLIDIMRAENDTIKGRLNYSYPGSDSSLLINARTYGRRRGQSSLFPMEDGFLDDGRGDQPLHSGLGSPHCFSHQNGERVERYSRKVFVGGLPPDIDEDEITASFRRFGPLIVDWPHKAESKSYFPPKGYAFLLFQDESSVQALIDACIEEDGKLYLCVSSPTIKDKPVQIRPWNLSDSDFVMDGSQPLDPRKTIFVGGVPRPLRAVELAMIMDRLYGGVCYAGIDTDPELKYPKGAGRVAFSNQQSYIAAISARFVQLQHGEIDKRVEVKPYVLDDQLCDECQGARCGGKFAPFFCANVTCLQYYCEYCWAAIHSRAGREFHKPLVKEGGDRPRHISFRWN

Some of the results follow.

Compound in the test: c1cn2cc(-c3ccc4cn[nH]c4c3)nc(Nc3ccc(N4CCOCC4)cc3)c2n1 [entospletinib]
Briefly: log2 fold change, soluble protein after heating vs DMSO (PISA); higher = thermal stabilisation; K562 lysate, 10 uM; active = over 0.2 and 3.5 SD of the protein, either way, in both replicates (recomputed). In short, it runs like this:
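A 30 min treatment with 10 μM compound was applied to crude K562 extract at 1 mg/mL protein in PBS pH 7.4 with 1 mM MgCl2. Heating for 3 min spanned 48°C-58°C, after which aliquots were pooled, adjusted to 0.5% NP-40 at 4°C and spun at 21,000xg for 90 min. TMTpro 16plex LC-MS/MS of the supernatant, with channel sums equalised, gave values recorded as log-two fold change in thermal stability against solvent controls, from duplicates.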
As for CPLX1 (UniProt O14810), the log2 fold change is inactive: 0.119. Regarding CPNE2 (UniProt Q96FN4), the log2 fold change is inactive: 0.013. Turning to COCH (UniProt O43405), the log2 fold change was inactive: -0.124. The figure for CNPY4 (UniProt Q8N129) is inactive: -0.01. Turning to COMMD4 (UniProt Q9H0A8), the log2 fold change is inactive: 0.028. For the target COX6C (UniProt P09669), the log2 fold change is inactive: 0.016. Take CPEB4 (UniProt Q17RY0): the log2 fold change was inactive: -0.034.
